# In the supplement of paper PMC4604168 (melanoma cell lines):
# The list shows a part of the results. Single values are uncertain, as repeats are few or missing.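 Cells were imaged in 1,536-well plates, and nuclei stained with an antibody against cleaved PARP were counted against all DNA-stained nuclei to give the apoptosis fraction. Screening doses were chosen to leave most cells alive, and resting and induced cleaved-PARP levels differ strongly between cell lines.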
# Columns and labels:
# Assay in all cases: cleaved PARP positive nuclei fraction relative to DMSO control; melanoma cells; higher = more apoptosis
# Conditions in all cases: library dose: low library concentration; 72 h
# 501Mel = system: 501Mel
# A101D = system: A101D
# A2058 = system: A2058
# C32 = system: C32
# CBRC008 = system: CBRC008 (line from a melanoma biopsy)
# CBRC014 = system: CBRC014 (line from a melanoma biopsy)
# CBRC016 = system: CBRC016 (line from a melanoma biopsy)
# CBRC017 = system: CBRC017 (line from a melanoma biopsy)
# COLO792 = system: COLO792
# COLO800 = system: COLO800
# COLO829 = system: COLO829
# G361 = system: G361
# IPC-298 = system: IPC-298
# IST-MEL1 = system: IST-MEL1
# LB2518-MEL = system: LB2518-MEL
# LOXIMVI = system: LOXIMVI
# A375 = system: A375
# CBRC034 = system: CBRC034 (line from a melanoma biopsy)
# MEL-HO = system: MEL-HO
# CBRC013 = system: CBRC013 (line from a melanoma biopsy)
SMILES,cleaved PARP positive nuclei fraction (501Mel),cleaved PARP positive nuclei fraction (A101D),cleaved PARP positive nuclei fraction (A2058),cleaved PARP positive nuclei fraction (C32),cleaved PARP positive nuclei fraction (CBRC008),cleaved PARP positive nuclei fraction (CBRC014),cleaved PARP positive nuclei fraction (CBRC016),cleaved PARP positive nuclei fraction (CBRC017),cleaved PARP positive nuclei fraction (COLO792),cleaved PARP positive nuclei fraction (COLO800),cleaved PARP positive nuclei fraction (COLO829),cleaved PARP positive nuclei fraction (G361),cleaved PARP positive nuclei fraction (IPC-298),cleaved PARP positive nuclei fraction (IST-MEL1),cleaved PARP positive nuclei fraction (LB2518-MEL),cleaved PARP positive nuclei fraction (LOXIMVI),cleaved PARP positive nuclei fraction (A375),cleaved PARP positive nuclei fraction (CBRC034),cleaved PARP positive nuclei fraction (MEL-HO),cleaved PARP positive nuclei fraction (CBRC013)
"CCN(CC)CCNC(=O)c1c(C)[nH]c(/C=C2\C(=O)Nc3ccc(F)cc32)c1C [sunitinib] + COC(=O)c1sccc1S(=O)(=O)Nc1ccc(Nc2ccccc2)cc1OC [GSK0660] (first compound 0.4 µM, partner dose 1 µM)",79.7%,49.2%,166%,83.3%,151%,81%,71.6%,78.5%,37.6%,116%,60%,75.3%,61%,71.9%,201%,107%,,,,
"Cn1cnc2c(F)c(Nc3ccc(Br)cc3Cl)c(C(=O)NOCCO)cc21 [selumetinib] + C=CCNC1=C2C[C@@H](C)C[C@H](OC)[C@H](O)[C@@H](C)/C=C(\C)[C@H](OC(N)=O)[C@@H](OC)/C=C\C=C(/C)C(=O)NC(=CC1=O)C2=O [Tanespimycin] (first compound 0.015 µM, partner dose 0.002 µM)",,49.7%,77.7%,101%,92.5%,80.6%,243%,302%,60.4%,50.3%,103%,271%,241%,72.6%,,115%,105%,118%,58%,
"COc1ccc(C2=N[C@@H](c3ccc(Cl)cc3)[C@@H](c3ccc(Cl)cc3)N2C(=O)N2CCNC(=O)C2)c(OC(C)C)c1 [Nutlin-3] + Cn1cc(/C=C2\C(=O)Nc3cccnc32)c2ccccc21 [GW441756] (first compound 0.1 µM, partner dose 0.4 µM)",71.2%,55%,150%,254%,44.8%,87.1%,40.1%,98.2%,104%,55.1%,150%,75.1%,130%,65.1%,69.7%,149%,,,,
"Cn1sc(=O)n(Cc2ccccc2)c1=O + C=C(c1ccc(C(=O)O)cc1)c1cc2c(cc1C)C(C)(C)CCC2(C)C [Bexarotene] (first compound 0.4 µM, partner dose 2 µM)",,20.3%,176%,84.4%,177%,104%,150%,140%,68.6%,110%,94.1%,179%,189%,63.7%,,127%,51.8%,46.2%,97.6%,
"CS(=O)(=O)c1ccc(C(=O)Nc2ccc(Cl)c(-c3ccccn3)c2)c(Cl)c1 [vismodegib] + COc1ccc(COc2ccc(Cc3cnc(N)nc3N)cc2OC)cc1 [GW2580] (first compound 1 µM, partner dose 1 µM)",55.7%,26.1%,139%,72.3%,49.4%,102%,48%,95.2%,271%,49.3%,114%,97.1%,45.5%,240%,61.7%,47.6%,,,,
"CC(=O)O[C@@]12CO[C@@H]1C[C@H](O)[C@@]1(C)C(=O)[C@H](O)C3=C(C)[C@@H](OC(=O)[C@H](O)[C@@H](NC(=O)OC(C)(C)C)c4ccccc4)C[C@@](O)([C@@H](OC(=O)c4ccccc4)[C@H]21)C3(C)C [Docetaxel] + O=C1NC(=O)/C(=C/c2ccc(-c3ccc(F)cc3O)o2)S1 [AS252424] (first compound 0.0001 µM, partner dose 1 µM)",208%,35%,2250%,700%,520%,129%,225%,174%,597%,124%,335%,1260%,358%,96.6%,136%,101%,,,,
"Cn1sc(=O)n(Cc2ccccc2)c1=O + O=c1cc(-c2cccc3c2Sc2ccccc2S3)oc(N2CCOCC2)c1 [KU55933] (first compound 0.4 µM, partner dose 1 µM)",60.3%,27.9%,73.7%,126%,68.4%,71.4%,1720%,87.2%,66.5%,37%,89.1%,121%,91.8%,167%,59.6%,123%,,,,
"NC1(c2ccc(-c3nc4ccn5c(=O)[nH]nc5c4cc3-c3ccccc3)cc2)CCC1 + Cc1cc(N2CCOCC2)cc2[nH]c(-c3c(NC[C@@H](O)c4cccc(Cl)c4)cc[nH]c3=O)nc12 [BMS536924] (first compound 0.4 µM, partner dose 0.2 µM)",,215%,106%,202%,180%,83.6%,72.4%,193%,458%,148%,80.1%,93.7%,93.5%,105%,,208%,387%,,180%,123%
"Cn1cnc2c(F)c(Nc3ccc(Br)cc3Cl)c(C(=O)NOCCO)cc21 [selumetinib] + C=C(c1ccc(C(=O)O)cc1)c1cc2c(cc1C)C(C)(C)CCC2(C)C [Bexarotene] (first compound 0.015 µM, partner dose 2 µM)",,104%,68.5%,92.1%,85.9%,79.4%,104%,135%,119%,60.2%,68.4%,156%,141%,46.2%,,66.4%,115%,341%,92.5%,
"Cn1cnc2c(F)c(Nc3ccc(Br)cc3Cl)c(C(=O)NOCCO)cc21 [selumetinib] + OCCn1cc(-c2cnc3nnn(Cc4ccc5ncccc5c4)c3n2)cn1 [PF04217903] (first compound 0.015 µM, partner dose 1 µM)",,85.4%,141%,104%,42.5%,77.6%,38.3%,100%,98.9%,77.1%,53.8%,96.5%,111%,62.4%,,46.7%,270%,,69%,126%
"CCCCCCCCc1ccc(CCC(N)(CO)CO)cc1 [fingolimod] + Cc1ccc(NC(=O)c2cccc(N(C)C)c2)cc1NC(=O)c1ccc(O)cc1 [ZM336372] (first compound 2 µM, partner dose 2 µM)",,268%,136%,151%,87.7%,106%,156%,143%,182%,56.3%,93.2%,58%,106%,97.7%,,156%,44%,,191%,77.5%
"COc1ccc(C2=N[C@@H](c3ccc(Cl)cc3)[C@@H](c3ccc(Cl)cc3)N2C(=O)N2CCNC(=O)C2)c(OC(C)C)c1 [Nutlin-3] + N#Cc1c(O)c2c(-c3ccc(-c4ccccc4O)cc3)csc2[nH]c1=O [A769662] (first compound 0.1 µM, partner dose 2 µM)",64.2%,44.9%,114%,124%,48.6%,75.2%,74.5%,181%,82.4%,69%,60%,20.7%,59.9%,162%,76.9%,150%,,,,
"C[C@]1(O)C[C@@H](c2nc(-c3ccc4ccc(-c5ccccc5)nc4c3)c3c(N)nccn32)C1 + Oc1nc(-c2ccc(C(F)(F)F)cc2)nc2c1CSCC2 [XAV939] (first compound 0.4 µM, partner dose 2 µM)",68.3%,14.8%,78.5%,109%,240%,102%,144%,115%,104%,136%,106%,148%,99.4%,107%,106%,36.2%,,,,
"Cn1sc(=O)n(Cc2ccccc2)c1=O + NCC(=O)Nc1ccc(-n2nc(C(F)(F)F)cc2-c2ccc3c(ccc4ccccc43)c2)cc1 [OSU03012] (first compound 0.4 µM, partner dose 1 µM)",,157%,66.8%,45%,113%,82.3%,328%,138%,93.9%,33.9%,82.5%,105%,357%,176%,,90.7%,2250%,,101%,168%
"NC1(c2ccc(-c3nc4ccn5c(=O)[nH]nc5c4cc3-c3ccccc3)cc2)CCC1 + CO[C@@H]1[C@H](N(C)C(=O)c2ccccc2)C[C@H]2O[C@]1(C)n1c3ccccc3c3c4c(c5c6ccccc6n2c5c31)C(=O)NC4 [Midostaurin] (first compound 0.4 µM, partner dose 0.08 µM)",,230%,121%,154%,175%,88.3%,130%,78.3%,202%,29.9%,88.4%,119%,193%,172%,,41%,296%,,144%,104%
"CN(c1ncccc1CNc1nc(Nc2ccc3c(c2)CC(=O)N3)ncc1C(F)(F)F)S(C)(=O)=O + CO[C@@H]1[C@H](N(C)C(=O)c2ccccc2)C[C@H]2O[C@]1(C)n1c3ccccc3c3c4c(c5c6ccccc6n2c5c31)C(=O)NC4 [Midostaurin] (first compound 0.08 µM, partner dose 0.08 µM)",,203%,106%,370%,111%,113%,77.7%,101%,132%,59.8%,208%,120%,97.5%,94%,,550%,99.9%,,48.4%,151%
"CN(c1ncccc1CNc1nc(Nc2ccc3c(c2)CC(=O)N3)ncc1C(F)(F)F)S(C)(=O)=O + COc1cc2c(Oc3ccc4[nH]c(C)cc4c3F)ncnc2cc1OCCCN1CCCC1 [cediranib] (first compound 0.08 µM, partner dose 0.4 µM)",,82.4%,53.5%,176%,63%,98.8%,117%,109%,173%,57.5%,131%,131%,46%,73.5%,,56.1%,85.7%,,55.7%,101%
"Cn1cnc2c(F)c(Nc3ccc(Br)cc3Cl)c(C(=O)NOCCO)cc21 [selumetinib] + CCN(CC)CCCCNc1ncc2cc(-c3cc(OC)cc(OC)c3)c(NC(=O)NC(C)(C)C)nc2n1 [PD173074] (first compound 0.015 µM, partner dose 0.1 µM)",274%,107%,48.2%,182%,50.7%,95.9%,59.1%,120%,45.4%,121%,20%,91.3%,185%,118%,116%,130%,,,,
